Source: article PMC5656747
Results are given in words; binding and its absence hold for the method and conditions named. Binding seen in cells or lysates may run through a third protein. A yes stands for co-enrichment or nearness to the bait. Other partners may have been found. No binding means not detected with the bait.

By UniProt entry, the sequences of proteins in these tests, tags left out. Residues count along the entry.
UniProt P25054, residues 1265-2060: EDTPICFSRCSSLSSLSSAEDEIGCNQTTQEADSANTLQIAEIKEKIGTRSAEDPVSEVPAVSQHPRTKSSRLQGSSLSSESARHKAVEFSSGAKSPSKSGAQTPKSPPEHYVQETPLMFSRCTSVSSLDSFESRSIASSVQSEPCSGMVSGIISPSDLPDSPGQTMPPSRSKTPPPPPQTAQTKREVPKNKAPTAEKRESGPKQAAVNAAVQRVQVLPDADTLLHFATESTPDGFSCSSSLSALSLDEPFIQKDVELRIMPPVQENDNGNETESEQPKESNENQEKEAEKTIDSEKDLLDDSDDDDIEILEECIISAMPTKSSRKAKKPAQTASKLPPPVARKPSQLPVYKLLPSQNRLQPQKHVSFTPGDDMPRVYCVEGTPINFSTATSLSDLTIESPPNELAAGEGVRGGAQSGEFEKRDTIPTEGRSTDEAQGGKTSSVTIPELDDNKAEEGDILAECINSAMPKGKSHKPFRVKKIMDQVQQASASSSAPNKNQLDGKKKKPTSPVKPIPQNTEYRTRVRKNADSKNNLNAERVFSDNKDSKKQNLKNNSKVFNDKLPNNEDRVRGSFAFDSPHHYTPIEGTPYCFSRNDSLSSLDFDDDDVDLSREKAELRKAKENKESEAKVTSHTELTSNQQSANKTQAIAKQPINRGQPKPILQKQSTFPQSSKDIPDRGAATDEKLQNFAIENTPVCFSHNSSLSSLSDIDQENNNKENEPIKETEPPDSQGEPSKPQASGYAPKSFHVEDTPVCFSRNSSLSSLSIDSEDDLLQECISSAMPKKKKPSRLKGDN
UniProt O15169: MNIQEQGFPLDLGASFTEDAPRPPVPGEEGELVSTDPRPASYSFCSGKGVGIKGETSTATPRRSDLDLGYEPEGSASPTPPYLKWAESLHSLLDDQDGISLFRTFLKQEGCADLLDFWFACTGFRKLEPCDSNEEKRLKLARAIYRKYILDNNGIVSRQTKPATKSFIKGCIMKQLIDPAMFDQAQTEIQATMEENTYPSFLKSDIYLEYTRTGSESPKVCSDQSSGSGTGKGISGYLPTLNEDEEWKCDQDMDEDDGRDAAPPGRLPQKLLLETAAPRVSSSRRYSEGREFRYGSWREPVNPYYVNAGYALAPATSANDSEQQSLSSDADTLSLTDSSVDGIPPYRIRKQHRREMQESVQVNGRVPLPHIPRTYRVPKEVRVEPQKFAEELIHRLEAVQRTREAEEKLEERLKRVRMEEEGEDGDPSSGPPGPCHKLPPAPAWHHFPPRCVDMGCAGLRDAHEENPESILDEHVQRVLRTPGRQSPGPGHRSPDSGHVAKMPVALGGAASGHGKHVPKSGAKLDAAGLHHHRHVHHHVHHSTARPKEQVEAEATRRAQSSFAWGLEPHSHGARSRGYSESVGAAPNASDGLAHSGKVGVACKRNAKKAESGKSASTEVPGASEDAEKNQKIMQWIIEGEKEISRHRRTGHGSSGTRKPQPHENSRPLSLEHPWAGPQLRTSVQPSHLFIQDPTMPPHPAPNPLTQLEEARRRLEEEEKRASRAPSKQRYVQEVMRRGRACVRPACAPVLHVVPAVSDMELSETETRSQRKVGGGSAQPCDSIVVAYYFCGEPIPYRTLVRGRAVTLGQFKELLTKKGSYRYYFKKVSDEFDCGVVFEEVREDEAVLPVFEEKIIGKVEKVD
UniProt Q93009: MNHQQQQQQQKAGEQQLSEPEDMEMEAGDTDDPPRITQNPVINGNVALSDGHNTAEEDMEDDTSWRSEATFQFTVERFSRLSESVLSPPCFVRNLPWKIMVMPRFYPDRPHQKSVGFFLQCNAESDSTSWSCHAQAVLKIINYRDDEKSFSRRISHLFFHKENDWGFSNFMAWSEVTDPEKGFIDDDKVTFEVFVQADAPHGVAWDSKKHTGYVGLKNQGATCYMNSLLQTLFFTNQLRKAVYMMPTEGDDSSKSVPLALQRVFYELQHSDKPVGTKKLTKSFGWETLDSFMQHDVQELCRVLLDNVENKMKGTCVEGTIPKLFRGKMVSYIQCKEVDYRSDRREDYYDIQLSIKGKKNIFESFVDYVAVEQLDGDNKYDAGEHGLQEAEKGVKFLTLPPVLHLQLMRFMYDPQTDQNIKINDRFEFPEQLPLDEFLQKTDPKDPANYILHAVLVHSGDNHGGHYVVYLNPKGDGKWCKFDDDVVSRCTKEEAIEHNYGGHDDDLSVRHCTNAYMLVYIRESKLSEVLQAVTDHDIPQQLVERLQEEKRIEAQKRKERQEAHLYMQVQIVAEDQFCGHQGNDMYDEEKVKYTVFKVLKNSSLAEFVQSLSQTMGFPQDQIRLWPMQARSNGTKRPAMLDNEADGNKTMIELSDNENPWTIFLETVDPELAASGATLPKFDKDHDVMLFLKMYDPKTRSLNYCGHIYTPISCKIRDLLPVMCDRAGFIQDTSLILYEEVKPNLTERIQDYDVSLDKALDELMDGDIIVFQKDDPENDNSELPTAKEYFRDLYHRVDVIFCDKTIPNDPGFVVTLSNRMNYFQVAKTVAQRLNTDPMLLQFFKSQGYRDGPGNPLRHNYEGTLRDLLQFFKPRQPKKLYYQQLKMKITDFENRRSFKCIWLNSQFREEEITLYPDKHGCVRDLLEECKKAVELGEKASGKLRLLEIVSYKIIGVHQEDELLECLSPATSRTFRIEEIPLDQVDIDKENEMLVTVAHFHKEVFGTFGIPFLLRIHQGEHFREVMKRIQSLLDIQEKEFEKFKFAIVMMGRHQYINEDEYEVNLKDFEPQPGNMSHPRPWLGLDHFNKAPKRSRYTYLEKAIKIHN

Target: APC WT (central region of APC, 1,265-2,060 aas), FLAG-tagged (UniProt P25054)
Assay: affinity purification with mass spectrometry; APC WT or ΔCID expressed in human HEK293T cells; tandem affinity purification, mass spectrometry, iBAQ label-free quantification

| binding | Substance |
| --- | --- |
| binds | AXIN1 (from UniProt O15169 1-862) |
| no binding | USP7 (ubiquitin-specific peptidase 7) (from UniProt Q93009 1-1102) (enzyme) |
